Assay results published in PubChem BioAssay AID1671190 (National Center for Advancing Translational Sciences (NCATS), 2021).
Where “and” joins values, the source holds several entries; their conditions need not be identical. Equal entries are not always repeated. Hit rate of the full screen: of about 580,000 compounds, about 6,100 (1.1%) were called active. Inconclusive means that the source gave no clear call. Such entries were picked first, then a sample of the others. The call rests on the fitted dose curve; in most records, active means well fitted inhibition curve with a large enough effect; inconclusive means small, poorly fitted or top-dose-only effect, or another doubt; inactive means no such curve, though single readings can be large or run the other way. Potencies beside an inconclusive call are fits to weak or partial responses and may not hold up.

Amino acid sequences for entries named in this document (tags omitted). A change or cut given only in a name is not applied to a line headed by its entry.
UniProt P18054: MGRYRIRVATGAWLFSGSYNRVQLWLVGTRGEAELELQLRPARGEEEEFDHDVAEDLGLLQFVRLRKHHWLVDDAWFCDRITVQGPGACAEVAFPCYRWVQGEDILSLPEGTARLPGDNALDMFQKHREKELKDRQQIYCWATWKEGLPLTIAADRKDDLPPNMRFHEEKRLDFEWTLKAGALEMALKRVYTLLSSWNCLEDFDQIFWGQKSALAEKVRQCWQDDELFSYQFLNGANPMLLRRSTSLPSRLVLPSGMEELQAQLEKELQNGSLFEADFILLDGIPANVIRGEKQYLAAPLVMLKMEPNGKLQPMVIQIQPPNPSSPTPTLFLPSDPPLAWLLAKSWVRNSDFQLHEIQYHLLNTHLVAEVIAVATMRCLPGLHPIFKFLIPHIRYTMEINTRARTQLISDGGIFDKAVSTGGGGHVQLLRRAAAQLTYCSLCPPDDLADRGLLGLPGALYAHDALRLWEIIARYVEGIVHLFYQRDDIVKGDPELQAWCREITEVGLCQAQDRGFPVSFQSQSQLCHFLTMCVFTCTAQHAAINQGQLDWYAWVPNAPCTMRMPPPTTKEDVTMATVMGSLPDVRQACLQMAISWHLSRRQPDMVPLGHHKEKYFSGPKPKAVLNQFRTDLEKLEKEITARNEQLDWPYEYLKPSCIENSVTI

Target: Polyunsaturated fatty acid lipoxygenase ALOX12 (Homo sapiens) (UniProt P18054)
Assay: Primary qHTS assay for inhibitors of human arachidonate 12S-lipoxygenase (ALOX12): Round 2
Settings: purified 12hLO, xylenol orange hydroperoxide absorbance; activity change, negative = inhibition: at 108 µM (top of the series) unless noted
Outline: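 Hydroperoxide product was detected by ferrous iron/xylenol orange as the 573 to 405 nm absorbance ratio. Arachidonic acid at 40 uM (final) was turned over for 30 min at room temperature by 150 nM human 12hLO, pH 7.0 Hepes buffer, after 15 min compound preincubation.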
On the % scale 0 is the no-effect control and ±100 the full control effect; potency means the concentration at half of the fitted maximal effect.

Structure (SMILES)	Potency	activity change, negative = inhibition
COc1ccccc1CNc1nc(-c2ccco2)nn1S(=O)(=O)c1ccc2ccccc2c1	inconclusive: 35.5 µM [inhibitor, partial curve]	
Fc1ccc(CNc2ncncc2-c2nc(-c3ccccc3)no2)cc1		inactive: 11.3%
Cc1ccc(-c2nn(-c3ccccc3)cc2C=C2SC(=S)N(CCS(=O)(=O)O)C2=O)cc1	inconclusive: 31.6 µM [inhibitor, partial curve, poor fit]	
Cc1cc(=O)oc(C)c1C(=O)OC(C(=O)c1ccccc1)c1ccccc1 (configuration not stated)		inactive: 6.32%
CCNc1ncc2nc(-c3ccccc3)c(=O)n(CCOC)c2n1	inconclusive: 79.4 µM [inhibitor, partial curve, poor fit]	
CN1CCN(C(=O)c2cn(C)c3ccc(S(=O)(=O)N(C)C4CCCCC4)cc3c2=O)CC1	inconclusive: 1.58 µM [inhibitor, full curve, poor fit]	
CCOC(=O)c1coc(CNC(=O)c2coc(C)c2)c1	inconclusive: 15.8 µM [inhibitor, full curve]	
Cc1ccc(S(=O)(=O)NC(=O)NC(C)(C)C)cc1	inconclusive: 50.1 µM [inhibitor, partial curve, poor fit]	
Cc1c(C)n2c3c(=O)[nH]c(=O)n(C)c3nc2n1CCNc1ccc(Cl)cc1	inconclusive: 25.1 µM [inhibitor, partial curve, poor fit]	
O=S(=O)(c1ccc(Cl)s1)N1CCC(n2cnnc2C2CC2)CC1	inconclusive: 5.01 µM [inhibitor, full curve, poor fit]	
c1ccc(-c2ccccc2OCCN2CCCCC2)cc1	inconclusive: 1.12 µM [inhibitor, full curve, poor fit]	
CCCCc1c(Cc2cccc(F)c2)ncn1CCc1ccccc1OC	inconclusive: 44.7 µM [inhibitor, partial curve, poor fit]	
CC(NC(=O)CCl)c1ccc(Cl)c(Cl)c1 (configuration not stated)		inactive: 0%
Cc1cc(Nc2ccccc2)nc(NCc2ccccc2)n1	inconclusive: 50.1 µM [inhibitor, partial curve, poor fit] and inconclusive: 50.1 µM [inhibitor, single point]	
COc1ccc(S(=O)(=O)N2CCN(c3ccccc3F)CC2)cc1-c1nc(C(C)C)no1		inactive: 6.6%
O=C(Cn1c(SCC(=O)Nc2ccc(F)cc2)nc2ccccc21)NCc1ccc(F)cc1	inconclusive: 112 µM [inhibitor, single point]	
O=C(Nn1cnnc1)c1ccccc1Br	inconclusive: 35.5 µM [inhibitor, single point]	
O=C(NC(=S)Nc1cccnc1)c1cccs1	inconclusive: 39.8 µM [inhibitor, partial curve, poor fit]	
Nc1nc(Nc2ccccc2F)nc(N2CCOCC2)c1[N+](=O)[O-]	inconclusive: 112 µM [inhibitor, single point]	
N#Cc1ccc(C(=O)Nc2cc3nn(-c4ccccc4)nc3cc2Cl)c(F)c1		inactive: 0%
Cc1ccc(Nc2nc(N)c(C(=O)c3ccccc3Cl)s2)c(C)c1	inconclusive: 50.1 µM [inhibitor, partial curve, poor fit]	
Cc1ccc(C2c3cc(OCc4nc(C(=O)N5CCCC5)co4)ccc3CCN2C(=O)C2CC2)cc1 (configuration not stated)	inconclusive: 14.1 µM [inhibitor, full curve, poor fit]	
Cc1cc2ccccc2c(=O)n1CC(=O)NCC1COc2ccccc2O1 (configuration not stated)		inactive: 0%

Structure (SMILES)	Potency	activity change, negative = inhibition
CCCn1c(NC(=O)CCS(=O)(=O)c2ccc(C)cc2)nc2ccccc21	inconclusive: 44.7 µM [inhibitor, partial curve, poor fit]	
CCOc1ccccc1NC(=O)C1CCC(=O)N1S(=O)(=O)c1ccc(C)cc1 (configuration not stated)		inactive: -21.2%
Cc1ccc(NC(=O)CCc2ncc(-c3ccccc3)o2)nc1		inactive: 0.0134%
CC(=O)Oc1ccc(C(=O)[C@H]2[C@H]3C(=O)N(c4ccc(C)cc4)C(=O)[C@H]3[C@@H]3C=CC=NN32)cc1	inconclusive: 79.4 µM [inhibitor, partial curve, poor fit]	
Cc1ccc(NC(=O)CN2CCN(C(=O)CCNC(=O)c3ccc(C(C)(C)C)cc3)CC2)cc1		inactive: 2.01%
COCCn1cnnc1SCc1ccccc1F	inconclusive: 50.1 µM [inhibitor, partial curve, poor fit]	
O=C(N[C@@H](Cc1ccccc1)C(=O)CCl)OCc1ccccc1		inactive: -20.6%
Cc1ccc(C(=O)N2CCCCCCNC(=O)[C@@H]3C[C@@H](c4nc(Cc5ccccc5)no4)C[C@@H]32)s1		inactive: 18%
COc1ccccc1NC(=O)CN1CCN(C2c3ccccc3-c3ccccc32)CC1	inconclusive: 141 µM [inhibitor, single point]	
Cc1cccc(N2CCN(Cc3ccoc3)CC2)c1C	inconclusive: 0.355 µM [inhibitor, full curve, poor fit]	
COc1ccccc1/C=C/C(=O)c1ccc(OCc2ccccc2)cc1OCc1ccccc1		inactive: -23.9%
O=C1COc2ccc(-c3ccc4c(c3)OCO4)nc2CN1Cc1ccc(C(F)(F)F)cc1	inconclusive: 7.94 µM [inhibitor, full curve]	
Cc1cc(Cl)nc(-n2nc(C)cc2C)n1	inconclusive: 6.31 µM [inhibitor, partial curve, poor fit]	
Cc1cccc(N2CCN(C(=O)c3ccc4ccccc4c3)CC2C)c1 (configuration not stated)		inactive: -27.6%
CCOC(CNC(=O)c1cccn2c(=O)c3c(C)c(C)sc3nc12)OCC		inactive: -2%
O=C(NNC(=O)C1CCCCC1)c1ccccc1F		inactive: 11.7%
COc1cccc(CC(=O)N2CCC([C@@H]3CNC[C@H]3CO)CC2)c1	inconclusive: 22.4 µM [inhibitor, full curve]	
C=CCN(CC(=O)c1sc(C(=O)OCC)nc1C)c1cccc(Br)c1	inconclusive: 31.6 µM [inhibitor, partial curve, poor fit]	
CCSc1nnc2c(n1)[nH]c1c(C)cccc12		inactive: -5.8%
Cc1nnnn1/C(=C\c1ccccc1)C(=O)OCC(=O)Nc1ccc(Cl)cc1F	inconclusive: 100 µM [inhibitor, single point]	
O=C(O)c1ccc(CN2CCC[C@H]2c2nc(-c3ccc(F)cn3)no2)cc1	inconclusive: 28.2 µM [inhibitor, partial curve, poor fit]	
Cc1cccc2c(=O)c(-c3ccc4c(c3)OCO4)c(NC(=O)c3ccc(F)cc3)oc12		inactive: -4.95%
Oc1ccc(-c2onc3ccc(Cl)cc23)cc1	inconclusive: 79.4 µM [inhibitor, partial curve, poor fit]	

Structure (SMILES)	Potency	activity change, negative = inhibition
Nc1nonc1-n1nnc(C(=O)N/N=C/c2ccccn2)c1-c1ccccc1	inconclusive: 112 µM [inhibitor, single point]	
O=C(c1cc2cc(Cl)ccc2[nH]1)N1CCN(C(=O)c2ccco2)CC1	active: 44.7 µM	
COCCCNC(=O)/C(C#N)=C/c1c(N2CCN(c3ccccc3)CC2)nc2ccccn2c1=O	inconclusive: 44.7 µM [inhibitor, partial curve, poor fit]	
Cc1ccc2oc(C(=O)Nc3nonc3-c3ccc(C(C)C)cc3)cc(=O)c2c1	inconclusive: 100 µM [inhibitor, single point]	
Cc1ccc(-c2cc(-c3ccc(F)cc3)nc(N)c2C#N)o1	active: 6.31 µM	
Cc1ccc(CNS(=O)(=O)c2cc3[nH]c(=O)c(=O)[nH]c3cc2C)cc1	inconclusive: 141 µM [inhibitor, partial curve, poor fit]	
CC(C)(C)SCCNC(=O)Nc1ccccc1	inconclusive: 12.6 µM [inhibitor, partial curve, poor fit]	
CC(NC(=O)CC1Nc2ccccc2NC1=O)c1ccccc1 (configuration not stated)	inconclusive: 31.6 µM [inhibitor, partial curve, poor fit]	
Cc1ccc(S(=O)(=O)CC(=O)c2ccc([N+](=O)[O-])cc2)cc1	inconclusive: 112 µM [inhibitor, single point]	
O=C1ON=C(c2ccc(Cl)c([N+](=O)[O-])c2)/C1=C/c1cccc([N+](=O)[O-])c1O		inactive: 73.7%
CN(C(=S)NC(=O)C12CC3CC(CC(C3)C1)C2)c1ccc(O)cc1	inconclusive: 31.6 µM [inhibitor, single point]	
COc1ccccc1-c1cc(=O)c2cc(NC(=O)c3ccccc3Br)ccc2o1	inconclusive: 44.7 µM [inhibitor, partial curve, poor fit]	
COc1ccc(CC(=O)NNC(=O)c2cccs2)cc1OC		inactive: 0.616%
CC(C)CN1C(=O)/C(=C(/C#N)C(=O)NC2CCCCC2)c2ccccc21		inactive: 3.33%
CCN(CC)CCn1c(NCc2ccco2)nc2ccccc21	inconclusive: 28.2 µM [inhibitor, partial curve, poor fit]	
CN(C)C[C@@H]1CN(Cc2ccncc2)C[C@H]1NC(=O)c1ccc2c(c1)OCO2		inactive: 27.7%
COc1ccc(NC(=O)c2sc3nc(N4CCOCC4)c4c(c3c2N)CC(C)(C)OC4)cc1	inconclusive: 5.62 µM [inhibitor, full curve, poor fit]	
CCCCn1c(N)c(N(CC(C)C)C(=O)Cc2ccc(S(=O)(=O)N3CCOCC3)s2)c(=O)[nH]c1=O		inactive: 199%
Cc1cccc(NC(=O)c2ccc(S(=O)(=O)NCc3ccco3)cc2)n1	inconclusive: 3.55 µM [inhibitor, full curve, poor fit]	
O=C1/C(=C/c2cccc(Br)c2)SC(=S)N1/N=C/c1cc([N+](=O)[O-])ccc1O		inactive: -25.6%
Cn1cc(-c2ccc(F)cc2)cc1C(=O)NCCCN1CCCCC1	inconclusive: 7.08 µM [inhibitor, full curve]	

16 compounds out of the list, sorted by molar mass, largest number first.
Structure (SMILES)	Potency	activity change, negative = inhibition
COCCCNC(=O)/C(C#N)=C/c1c(N2CCN(c3ccccc3)CC2)nc2ccccn2c1=O	inconclusive: 44.7 µM [inhibitor, partial curve, poor fit]	
O=C1/C(=C/c2cccc(Br)c2)SC(=S)N1/N=C/c1cc([N+](=O)[O-])ccc1O		inactive: -25.6%
COc1ccccc1-c1cc(=O)c2cc(NC(=O)c3ccccc3Br)ccc2o1	inconclusive: 44.7 µM [inhibitor, partial curve, poor fit]	
O=C1ON=C(c2ccc(Cl)c([N+](=O)[O-])c2)/C1=C/c1cccc([N+](=O)[O-])c1O		inactive: 73.7%
Cc1ccc2oc(C(=O)Nc3nonc3-c3ccc(C(C)C)cc3)cc(=O)c2c1	inconclusive: 100 µM [inhibitor, single point]	
CN(C)C[C@@H]1CN(Cc2ccncc2)C[C@H]1NC(=O)c1ccc2c(c1)OCO2		inactive: 27.7%
Nc1nonc1-n1nnc(C(=O)N/N=C/c2ccccn2)c1-c1ccccc1	inconclusive: 112 µM [inhibitor, single point]	
Cc1cccc(NC(=O)c2ccc(S(=O)(=O)NCc3ccco3)cc2)n1	inconclusive: 3.55 µM [inhibitor, full curve, poor fit]	
Cc1ccc(CNS(=O)(=O)c2cc3[nH]c(=O)c(=O)[nH]c3cc2C)cc1	inconclusive: 141 µM [inhibitor, partial curve, poor fit]	
O=C(c1cc2cc(Cl)ccc2[nH]1)N1CCN(C(=O)c2ccco2)CC1	active: 44.7 µM	
CN(C(=S)NC(=O)C12CC3CC(CC(C3)C1)C2)c1ccc(O)cc1	inconclusive: 31.6 µM [inhibitor, single point]	
Cn1cc(-c2ccc(F)cc2)cc1C(=O)NCCCN1CCCCC1	inconclusive: 7.08 µM [inhibitor, full curve]	
COc1ccc(CC(=O)NNC(=O)c2cccs2)cc1OC		inactive: 0.616%
Cc1ccc(S(=O)(=O)CC(=O)c2ccc([N+](=O)[O-])cc2)cc1	inconclusive: 112 µM [inhibitor, single point]	
CCN(CC)CCn1c(NCc2ccco2)nc2ccccc21	inconclusive: 28.2 µM [inhibitor, partial curve, poor fit]	
CC(NC(=O)CC1Nc2ccccc2NC1=O)c1ccccc1 (configuration not stated)	inconclusive: 31.6 µM [inhibitor, partial curve, poor fit]	
